Test results published in PubChem BioAssay AID504444 (National Center for Advancing Translational Sciences (NCATS), 2011).
The campaign covered roughly 360,000 compounds. About 7,500 (2.1%) were called active. This list was built around the results that the source calls inconclusive (neither active nor inactive); the mix of calls is not that of the screen. Calls come from the whole dose curve; as a rule, active = well fitted inhibition curve with a large enough effect; inconclusive = small, poorly fitted or top-dose-only effect, or effect the other way; inactive = flat fitted curve, though single readings scatter. A potency beside an inconclusive call is a rough fit, not a confirmed value.

Assay: Nrf2 qHTS screen for inhibitors; note: nearly all actives have a fitted effect of over 60% in size
Conditions: A549 ARE-Fluc reporter, luciferase luminescence, 18-24 h; series mostly up to 46 µM
Summary of the method: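 Reporter: ARE-Fluc in A549. Exposure: 18-24 h, 37 °C, 5% CO2, 5% FBS OPTI-MEM. Readouts: fluorescent cytotoxicity (CellTiter-Fluor), then luminescent Nrf2 signal after BugLite.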
Potency is the fitted concentration of half-maximal effect.

Structure (SMILES) | Potency
COc1ccc(O)c(C(=O)CC(=O)c2ccc(F)cc2)c1 | inconclusive: 0.651 µM [activator, full curve]
COc1ccc(N(CC(=O)Nc2ccc3c(c2)OCCO3)S(=O)(=O)c2c(C)noc2C)cc1 | inconclusive: 29.1 µM [falling, single point]
CCN(CC)S(=O)(=O)c1cc(C(=O)OCC(=O)Nc2ccc(-c3nc4ccc(C)cc4s3)cc2)ccc1F | inconclusive: 10.3 µM [falling, partial curve, poor fit]
CCCCN(C)S(=O)(=O)c1ccc(C(=O)Nc2nnc(CSC)o2)cc1 | active: 10 µM
Cc1cccc(NC(=O)c2sc3cccc(Cl)c3c2Cl)c1 | inconclusive: 14.6 µM [activator, partial curve]
Cn1c(=O)n(C)c2cc(/C=N/NC(=S)NCc3ccccc3)ccc21 | inconclusive: 23.1 µM [falling, partial curve]
Cc1ccccc1NS(=O)(=O)c1cc(C(=O)NCCC2=CCCCC2)ccc1C | inconclusive: 29.1 µM [falling, single point]
CCOCCOC(=O)c1[nH]c2c(c1C)C(=O)CC(c1ccc(OC)c(OC)c1)C2 (centres undefined) | active: 20.6 µM
CC(=O)c1ccc(N(CC(=O)NC2CCCCC2)C(=O)CNC(=O)c2ccco2)cc1 | inactive
COCCNC(=S)NNc1ccc(Cl)c(C(=O)O)c1 | inactive
COc1cc(/C=N/Nc2nncc3ccccc23)cc(OC)c1OC | inconclusive: 2.31 µM [activator, full curve]
COc1cccc2oc3cc(C#CC4(O)CCCCC4)ccc3c(=O)c12 | inconclusive: 3.26 µM [activator, partial curve, poor fit]
COc1ccc(-c2nc3ccccc3s2)cc1NC(=O)c1ccccc1OC | inconclusive: 18.4 µM [activator, single point]
S=C(Nc1ccc(Oc2ccccc2)cc1)NC1CCCCC1 | inconclusive: 23.1 µM [falling, single point]
COc1ccc(-c2nc3scc(-c4ccccc4)n3n2)cc1 | inactive
COc1cc2c(cc1OC)C(C)N(C(=O)/C=C/c1cc(OC)c(OC)c(OC)c1)CC2 (centres undefined) | inconclusive: 2.91 µM [falling, full curve, poor fit]
COC(=O)C1=C(C)N(c2cccc(Cl)c2)C(=O)C1 | inconclusive: 7.31 µM [falling, partial curve, poor fit]
COC(=O)c1c(NC(NC(=O)C(C)C)C(Cl)(Cl)Cl)sc2c1CCC2 (centres undefined) | active: 18.4 µM
Cc1ccnc(NC(=O)Nc2ccc(Br)cc2Cl)c1 | inconclusive: 0.82 µM [activator, full curve]
C/C(=N/NC(=O)c1cc(C2CC2)[nH]n1)c1cccs1 | inconclusive: 18.4 µM [falling, single point]
CC(=O)Nc1ccc(S(=O)(=O)N2CCCN(S(=O)(=O)c3ccc4c(c3)OCCO4)CC2)cc1 | inconclusive: 29.1 µM [falling, single point]
COc1nccnc1NS(=O)(=O)c1ccc(NC(=S)NC(=O)c2cccc(F)c2)cc1 | inactive

Arranged by number of heavy atoms (falling): some entries from above.
Structure (SMILES) | Potency
CCOCCOC(=O)c1[nH]c2c(c1C)C(=O)CC(c1ccc(OC)c(OC)c1)C2 (centres undefined) | active: 20.6 µM
Cc1cccc(NC(=O)c2sc3cccc(Cl)c3c2Cl)c1 | inconclusive: 14.6 µM [activator, partial curve]
C/C(=N/NC(=O)c1cc(C2CC2)[nH]n1)c1cccs1 | inconclusive: 18.4 µM [falling, single point]

Remaining list, next part.

Structure (SMILES) | Potency
O=C(NC(=S)Nc1ccc2c(c1)OCCO2)c1ccco1 | inconclusive: 2.59 µM [activator, full curve]
N/C(=N\OC(=O)c1ccco1)c1ccc(Cl)cc1 | inconclusive: 29.1 µM [activator, single point]
CN(c1ccc(C(=O)N2CCN(c3ccccc3F)CC2)cc1)S(=O)(=O)c1ccccc1 | inconclusive: 11.6 µM [falling, partial curve, poor fit]
Cc1sc(NC(=O)c2ccccc2F)c(CN2CCCCC2)c1C | inconclusive: 3.66 µM [activator, partial curve, poor fit]
O=C(Nc1ccccc1)N1CCOCC1 | inconclusive: 0.146 µM [falling, full curve, poor fit]
CCOC(=O)c1ccc(NC(=S)N(Cc2cccnc2)Cc2ccco2)cc1 | inactive
Cc1ccccc1N1C(=O)CC(Sc2nnc(-c3ccccc3)o2)C1=O (centres undefined) | inactive
CCOC(=O)c1c(NC(=O)CC2SC(N)=NC2=O)sc2c1CCC(C)C2 (centres undefined) | inconclusive: 14.6 µM [falling, partial curve, poor fit]
CCc1cccc(NS(=O)(=O)c2ccc3c(c2)n(C)c(=O)n3C)c1 | active: 13 µM
Cc1c(C(=O)OCC(=O)N(C)Cc2ccc(Cl)cc2)oc2ccccc12 | inconclusive: 25.9 µM [falling, single point]
O=C(NNC(=O)c1ccc2c(=O)n3c(nc2c1)CCC3)c1cccc(Cl)c1 | inconclusive: 25.9 µM [falling, single point]
CC(=O)C1=C(C)NC(SCC(=O)c2ccc(F)cc2)=C(C#N)C1c1ccco1 (centres undefined) | inconclusive: 25.9 µM [falling, single point]
Cc1ccc(NC(=O)c2ccc([N+](=O)[O-])cc2)cc1S(=O)(=O)N(C)C | inconclusive: 9.2 µM [activator, partial curve]
Cc1ccc(NC(=O)Cc2n[nH]c(=O)c3ccccc23)cc1S(=O)(=O)N1CCCCCC1 | active: 10.3 µM
CC1(C)NC(=S)NC1=S | inactive
CCOC(=O)c1sc(NC(=O)c2ccc(S(=O)(=O)N(C)C)cc2)cc1C | inconclusive: 29.1 µM [falling, single point]
CCOc1ncccc1C(=O)NCC(c1ccco1)N1CCCCC1 (centres undefined) | inactive
CCCCc1ccc(NC(=O)C2CCCO2)cc1 (centres undefined) | inconclusive: 5.17 µM [activator, partial curve, poor fit]
COc1ccc(C2=Nn3c(nnc3-c3cc(OC)ccc3OC)SC2)cc1 | inconclusive: 0.116 µM [activator, full curve, poor fit]
Cc1ccc2c(c1)cc(CN(Cc1cccnc1)C(=O)NCc1ccccc1)c1nnnn12 | inactive
Nc1nc(CSc2ncccn2)nc(Nc2ccccc2)n1 | inconclusive: 2.91 µM [activator, full curve]
O=C(CSc1ccc2c(c1)OCCO2)Nc1ccc(Br)cn1 | inconclusive: 23.1 µM [falling, single point]
